The values that follow come from patent publication US10301664B2, “Repurposing non-antimicrobial drugs and clinical molecules to treat bacterial infections” (Purdue Research Foundation, priority 2015, dated 2019).

For orientation: MIC means the smallest concentration in the dilution series that meets the test's criterion for growth inhibition. A higher MIC goes with a need for much substance.

≈ marks a conversion by molar mass, not a printed value.

One experiment deals with MRSA USA300. As to the kind of experiment: Library hits: MIC/MBC against MRSA. Type of experiment: cell-based. The following applies: Staphylococcus aureus.
Experiment [1] relates to vancomycin resistant E. faecium ATCC 700221 (VRE). Briefly: Library hits: MIC/MBC against VRE. Type of experiment: cell-based.

In the case of `Clc1ccc(CO/N=C(\Cn2ccnc2)c2ccc(Cl)cc2Cl)c(Cl)c1` [Oxiconazole], the MIC against MRSA USA300 was 2 µM (≈ 0.858 µg/mL); in experiment [1], > 16 µM.
